About 4,300 (3.1%) of roughly 140,000 compounds were called active. Inconclusive results, whose numbers are uncertain, are shown with a selection of clear calls.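 Rule for the calls: active = readout at or below -70, meaning at least 70% loss of cells showing the perinucleolar compartment, a nuclear body marking cancer cells; inconclusive = readout between -30 and a set limit; inactive = the rest.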
experiment: High Content Assay for Compounds that inhibit the Assembly of the Perinucleolar Compartment; details: PC3M PTB-GFP, PNC prevalence imaging, 16 h; at 10 µM; stronger effect = lower value;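 note: plate controls were DMSO wells for no effect and camptothecin positive control wells for full effect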
How it was run: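 PC3M cells stably expressing PTB-GFP, 750–1000 cells/well, treated 16 h at 37 °C with compound (23 nl of library stock), in duplicate. After paraformaldehyde fixation and Hoechst stain, imaged at 20x; PNC prevalence scored by image analysis.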

SMILES	activity change (PNC), negative = inhibition
Cc1cc(S(=O)(=O)NCc2ccco2)c(C)s1	inconclusive: -32.2%
O=C(Cc1cccs1)NNC(=S)NC(=O)c1ccc(F)c(F)c1	inconclusive: -35%
C/C(CC(=O)Nc1ccc(F)cc1)=N\NC(=O)Cc1csc(N)n1	inconclusive: -54.9%
COc1ccccc1N(C(=O)Cn1nnc2ccccc21)C(C(=O)NCc1ccco1)c1ccc(C)o1 (stereo not drawn)	inactive: 20.9%
C/C(=N\NC(=S)NCCc1ccccc1)c1ccc(Cl)cc1	inconclusive: -63.3%
O=C(Nc1c(Cl)cc(Cl)cc1C(=O)NCCN1CCOCC1)c1ccc(Cl)cc1Cl	inconclusive: -46.4%
Oc1ccccc1Nc1nc(NCC2CCCO2)c2ccccc2n1 (stereo not drawn)	inconclusive: -66.7%
COc1ccc(NC(=O)c2[nH]c(C)c(C(C)=O)c2C)cc1S(=O)(=O)N1CCOCC1	inconclusive: -65.9%
Cn1c(SC/C=C/c2ccccc2)nnc1-c1ccco1	active: -100%
O=C(O)CC(NC(=O)COc1ccc(Cl)cc1Cl)C(=O)O (stereo not drawn)	inconclusive: -41.7%
N/C(=C/C(=O)c1ccccc1O)C(F)(F)F	inconclusive: -31.7%
COc1ccc(CC(=O)Nn2c(-c3ccccc3)nc3ccccc3c2=O)cc1	inconclusive: -36%
CC(=O)N1CCCc2cc(S(=O)(=O)NC(C(=O)NC(C)c3ccccc3)C(C)C)ccc21 (stereo not drawn)	inconclusive: -71%
COc1ccc(-c2nc3ccccc3c(=O)n2NC(=O)c2cccnc2Cl)cc1OC	inconclusive: -30.1%
Cc1cc(C(=O)COC(=O)c2ccc3c(c2)NC(=O)CS3)c(C)n1CC1CCCO1 (stereo not drawn)	inactive: 0.307%
CCCc1n[nH]c2c1/C(=N/O)CC(c1ccccc1)C2 (stereo not drawn)	inconclusive: -76.4%
Cc1cc(C)nc(SCC2COc3ccccc3O2)n1 (stereo not drawn)	inconclusive: -33.5%
COc1ccc(S(=O)(=O)NCC(=O)O)cc1C(=O)NC1CCCCC1	inconclusive: -55.8%
CCOC(=O)c1sc(NC(=O)Cn2nnc3sc4c(c3c2=O)CCCC4)nc1C	inconclusive: -30.3%
CCOc1ccccc1NC(=O)c1cccc(NC(=O)c2ccco2)c1	active: -86%

Individual results from the list:
activity change (PNC), negative = inhibition, `COc1ccc(NC(=O)c2[nH]c(C)c(C(C)=O)c2C)cc1S(=O)(=O)N1CCOCC1` is entered as inconclusive: -65.9%
activity change (PNC), negative = inhibition, `COc1ccc(CC(=O)Nn2c(-c3ccccc3)nc3ccccc3c2=O)cc1` is entered as inconclusive: -36%
activity change (PNC), negative = inhibition, `O=C(Nc1c(Cl)cc(Cl)cc1C(=O)NCCN1CCOCC1)c1ccc(Cl)cc1Cl` is entered as inconclusive: -46.4%
activity change (PNC), negative = inhibition, `COc1ccc(-c2nc3ccccc3c(=O)n2NC(=O)c2cccnc2Cl)cc1OC` is entered as inconclusive: -30.1%

Next compounds:

SMILES	activity change (PNC), negative = inhibition
COc1cc(N(C)C)c([N+](=O)[O-])cc1C(=O)NC(C)CNc1ccc([N+](=O)[O-])cc1Cl (stereo not drawn)	inactive: 51.6%
CN1CCN(CCCNC(=O)c2nnc(Cc3c(F)cccc3Cl)o2)CC1	inconclusive: -36.5%
COc1cc(NC(=S)NCc2ccco2)cc(OC)c1	inconclusive: -55.4%
O=C1c2ccncc2C(=O)N1CO	inconclusive: -46.9%
Cc1cc(/C=N/n2c(COc3ccccc3)nc3ccccc3c2=O)c(O)c([N+](=O)[O-])c1	inactive: 22.2%
CCN(CC(=O)NCc1ccc(F)cc1)C(=O)COc1ccc(C)c(C)c1	inconclusive: -51.3%
Cc1ccccc1OCC(=O)NCC(=O)OCC(=O)c1ccc2ccccc2c1	inconclusive: -40%
CC(O)CN(C)CC/C=C1/c2ccccc2CSc2ccccc21 (stereo not drawn)	inactive: 57.9%
O=C(Nc1nc2n(n1)C(c1ccc(Cl)cc1)CC(c1ccc(Cl)cc1)N2)c1ccco1 (stereo not drawn)	inconclusive: -73.2%
O=C(/C=C/Nc1cccc([N+](=O)[O-])c1)c1cccs1	inactive: 24%
O=C(NCc1ccco1)C(=O)NCC1OCCN1S(=O)(=O)c1ccccc1 (stereo not drawn)	inactive: 57.7%
Cc1cccc(C)c1Oc1nc(-c2ccccc2)ncc1S(=O)(=O)c1ccccc1	inconclusive: -35.8%
CCCOP(=O)(c1ccc(N(C)C)cc1)C(O)c1cccnc1 (stereo not drawn)	inactive: 53.4%
Cc1ccc(CN2CCN(/N=C/c3cccnc3)CC2)c(C)c1	inactive: -5.48%
CCOC(=O)C1=C(CSc2nc(-c3ccccc3)ccc2C#N)OC(N)=C(C#N)C1c1cccnc1 (stereo not drawn)	inconclusive: -34.9%
O=C(CSC1=NCCS1)Nc1cccc2ccccc12	inactive: 17.3%
Cc1cc(/C=N/n2c(COc3ccccc3C)nc3ccccc3c2=O)c(O)c([N+](=O)[O-])c1	inconclusive: -72.6%
C=CCc1ccccc1OCC(O)CNC (stereo not drawn)	inactive: 23.1%
COC(=O)c1ccc2c(c1)NC(=O)C(N1CCCCC1)S2 (stereo not drawn)	inactive: 17.1%
CCC(=O)Nc1ccc(/C(C)=N\NC(=O)c2ccc(OC)cc2)cc1	inconclusive: -35.5%

SMILES	activity change (PNC), negative = inhibition
Fc1ccc(-c2nnc(Cc3nnc(-c4ccc(F)cc4)o3)o2)cc1	inconclusive: -76.8%
CCn1c(SCC(=O)c2ccccc2)nc2c(c1=O)SC(C)C2 (stereo not drawn)	inconclusive: -56.5%
CC(=O)Nc1ccc(CN2CCN(c3cccc(C(F)(F)F)c3)CC2)cc1	inconclusive: -33.6%
COc1ccc(C2=Nn3c(nnc3C3CCCCC3)SC2)cc1OC	inconclusive: -35.8%
CCOc1ccccc1C(=O)OCC(=O)Nc1ccc(N2CCCCC2)cc1	inconclusive: -35.9%
Cc1cc(C)n(C(=O)CCCC(=O)n2nc(C)cc2C)n1	inconclusive: -46.6%
O=C(COC(=O)c1ccco1)NC1CCCCC1	inconclusive: -36.1%
CCCCOc1ccc(S(=O)(=O)NC(=O)NCc2ccc(OCCC)cc2)cc1	inconclusive: -50.1%
Cc1c(Cl)cccc1NC(=O)CCC(=O)NNC(=O)c1ccccc1Cl	inconclusive: -71.8%
COc1cccc(C2NC(=O)NC(O)(C(F)(F)F)C2C(=O)c2cccnc2)c1OC (stereo not drawn)	inconclusive: -68%
O=C(COc1ccccc1)Nc1nccs1	inconclusive: -39.9%
CC1C/C(=C/c2cccs2)C(=O)/C(=C/c2cccs2)C1 (stereo not drawn)	active: -113%
COC(=O)c1c(NC(=O)C2CC2)sc2c1CCCC2	inconclusive: -36.4%
CCN1/C(=C/c2ccc3cc(C)ccc3[n+]2CC)Sc2ccccc21	active: -93%
CC(=O)Nc1ccc(S(=O)(=O)Oc2ccc3c(c2)C(C)=CC(C)(C)N3)cc1	active: -109%
O=C(Nc1ccc2snnc2c1)N1CCOCC1	inactive: 0.319%
c1csc(Cn2nnnc2CN2CCN(c3nc4ccccc4s3)CC2)c1	inconclusive: -31.4%
Cc1ccc(Cl)cc1NC(=O)Cn1cc2c(n1)CCCC2	inactive: 5.27%

From PubChem BioAssay AID2417 (National Center for Advancing Translational Sciences (NCATS), 2010)
